# The supplement of paper PMC11732987, “Enantioselective OTUD7B fragment discovery through chemoproteomics screening and high-throughput optimisation” (Communications Chemistry, 2025)
# Chains of the proteins cited; added tags and fusions are not shown. Lines headed by an entry give the natural chain unless they say otherwise; changes in a name come on top.
# UniProt Q14152, whole entry, looked up: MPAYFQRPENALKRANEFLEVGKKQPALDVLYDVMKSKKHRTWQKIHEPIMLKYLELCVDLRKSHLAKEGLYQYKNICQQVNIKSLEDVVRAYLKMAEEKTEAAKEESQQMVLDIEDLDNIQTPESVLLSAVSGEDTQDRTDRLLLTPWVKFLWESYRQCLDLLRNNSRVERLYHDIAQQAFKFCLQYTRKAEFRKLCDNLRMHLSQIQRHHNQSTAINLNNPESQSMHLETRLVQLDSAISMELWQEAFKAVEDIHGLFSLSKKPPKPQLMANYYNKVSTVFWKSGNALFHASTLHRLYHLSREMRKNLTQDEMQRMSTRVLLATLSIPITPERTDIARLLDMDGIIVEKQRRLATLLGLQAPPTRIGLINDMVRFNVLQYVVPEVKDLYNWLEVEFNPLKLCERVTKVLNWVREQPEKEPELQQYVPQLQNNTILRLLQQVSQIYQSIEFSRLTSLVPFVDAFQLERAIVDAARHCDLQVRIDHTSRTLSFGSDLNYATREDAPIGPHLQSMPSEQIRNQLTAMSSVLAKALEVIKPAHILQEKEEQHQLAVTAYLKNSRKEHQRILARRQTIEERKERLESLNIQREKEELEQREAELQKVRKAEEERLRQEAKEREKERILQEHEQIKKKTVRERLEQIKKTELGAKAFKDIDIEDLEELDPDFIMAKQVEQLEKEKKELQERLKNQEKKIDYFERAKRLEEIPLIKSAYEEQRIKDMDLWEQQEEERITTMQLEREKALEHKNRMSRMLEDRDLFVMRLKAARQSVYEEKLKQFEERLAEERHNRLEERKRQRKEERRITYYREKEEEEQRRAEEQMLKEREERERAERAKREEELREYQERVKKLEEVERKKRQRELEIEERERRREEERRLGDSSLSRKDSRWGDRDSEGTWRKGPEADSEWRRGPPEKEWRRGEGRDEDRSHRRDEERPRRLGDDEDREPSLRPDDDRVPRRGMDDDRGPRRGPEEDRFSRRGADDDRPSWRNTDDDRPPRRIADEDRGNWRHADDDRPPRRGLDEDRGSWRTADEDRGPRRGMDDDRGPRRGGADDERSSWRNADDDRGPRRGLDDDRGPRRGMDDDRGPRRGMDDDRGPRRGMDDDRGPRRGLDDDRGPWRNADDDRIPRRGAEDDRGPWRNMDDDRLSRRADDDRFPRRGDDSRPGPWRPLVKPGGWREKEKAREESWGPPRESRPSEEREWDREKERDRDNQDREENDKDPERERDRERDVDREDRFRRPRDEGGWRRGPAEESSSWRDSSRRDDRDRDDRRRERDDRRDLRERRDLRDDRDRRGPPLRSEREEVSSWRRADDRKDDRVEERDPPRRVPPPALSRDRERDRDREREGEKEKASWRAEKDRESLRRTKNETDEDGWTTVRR
# UniProt Q9UHF1: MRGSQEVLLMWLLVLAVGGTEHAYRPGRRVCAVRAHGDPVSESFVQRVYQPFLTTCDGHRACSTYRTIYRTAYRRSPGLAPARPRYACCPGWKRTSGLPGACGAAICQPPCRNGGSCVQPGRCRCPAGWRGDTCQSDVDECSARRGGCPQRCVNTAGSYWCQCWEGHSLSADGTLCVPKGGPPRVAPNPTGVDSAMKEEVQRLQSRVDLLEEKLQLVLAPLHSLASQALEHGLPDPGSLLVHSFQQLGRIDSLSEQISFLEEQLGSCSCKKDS
# UniProt Q3B7T1: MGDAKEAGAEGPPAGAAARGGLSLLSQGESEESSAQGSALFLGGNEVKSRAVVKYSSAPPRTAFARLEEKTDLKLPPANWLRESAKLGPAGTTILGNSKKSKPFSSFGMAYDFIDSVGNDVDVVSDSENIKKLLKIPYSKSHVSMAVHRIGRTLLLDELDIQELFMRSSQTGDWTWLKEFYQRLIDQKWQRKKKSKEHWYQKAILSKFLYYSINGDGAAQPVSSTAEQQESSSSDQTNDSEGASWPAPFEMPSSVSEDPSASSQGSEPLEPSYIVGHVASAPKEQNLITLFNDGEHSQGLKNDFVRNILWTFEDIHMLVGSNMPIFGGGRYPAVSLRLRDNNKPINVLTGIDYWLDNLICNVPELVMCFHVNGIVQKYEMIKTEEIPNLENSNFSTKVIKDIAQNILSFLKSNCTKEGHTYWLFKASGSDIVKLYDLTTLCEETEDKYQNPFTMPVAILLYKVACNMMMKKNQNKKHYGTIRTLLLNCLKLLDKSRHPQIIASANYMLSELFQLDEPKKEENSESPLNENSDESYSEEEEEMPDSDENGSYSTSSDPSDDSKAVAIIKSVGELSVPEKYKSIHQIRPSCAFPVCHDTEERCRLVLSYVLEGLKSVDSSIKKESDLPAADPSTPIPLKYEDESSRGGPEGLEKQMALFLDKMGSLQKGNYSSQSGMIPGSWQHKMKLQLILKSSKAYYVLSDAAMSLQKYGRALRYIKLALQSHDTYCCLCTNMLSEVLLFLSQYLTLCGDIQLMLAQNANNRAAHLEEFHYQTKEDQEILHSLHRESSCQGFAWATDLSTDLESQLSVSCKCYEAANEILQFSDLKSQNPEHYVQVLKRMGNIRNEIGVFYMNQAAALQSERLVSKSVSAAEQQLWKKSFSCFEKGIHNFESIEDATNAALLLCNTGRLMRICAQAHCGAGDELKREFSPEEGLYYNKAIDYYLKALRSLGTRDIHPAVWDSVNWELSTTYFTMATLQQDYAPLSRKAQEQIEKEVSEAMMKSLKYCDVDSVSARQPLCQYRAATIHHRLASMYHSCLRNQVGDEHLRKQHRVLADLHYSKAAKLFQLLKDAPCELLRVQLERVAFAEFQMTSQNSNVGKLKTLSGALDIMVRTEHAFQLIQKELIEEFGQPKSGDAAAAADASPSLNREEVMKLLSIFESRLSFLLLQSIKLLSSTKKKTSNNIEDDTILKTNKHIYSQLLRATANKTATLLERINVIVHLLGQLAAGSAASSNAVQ
# UniProt Q9NX74: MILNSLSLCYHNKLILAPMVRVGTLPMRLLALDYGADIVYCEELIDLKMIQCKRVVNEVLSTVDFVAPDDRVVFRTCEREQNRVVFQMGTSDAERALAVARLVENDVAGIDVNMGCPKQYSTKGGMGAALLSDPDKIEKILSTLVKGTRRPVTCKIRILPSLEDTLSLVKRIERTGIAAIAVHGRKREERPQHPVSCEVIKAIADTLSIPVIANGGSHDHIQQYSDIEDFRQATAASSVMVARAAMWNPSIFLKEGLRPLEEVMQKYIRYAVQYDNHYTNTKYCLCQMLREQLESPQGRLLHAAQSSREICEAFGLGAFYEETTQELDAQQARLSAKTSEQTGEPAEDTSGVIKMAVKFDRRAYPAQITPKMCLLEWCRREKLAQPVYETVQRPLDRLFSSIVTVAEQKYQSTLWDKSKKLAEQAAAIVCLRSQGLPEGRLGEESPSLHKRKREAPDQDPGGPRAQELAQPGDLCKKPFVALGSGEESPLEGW
# UniProt Q7Z2Z2: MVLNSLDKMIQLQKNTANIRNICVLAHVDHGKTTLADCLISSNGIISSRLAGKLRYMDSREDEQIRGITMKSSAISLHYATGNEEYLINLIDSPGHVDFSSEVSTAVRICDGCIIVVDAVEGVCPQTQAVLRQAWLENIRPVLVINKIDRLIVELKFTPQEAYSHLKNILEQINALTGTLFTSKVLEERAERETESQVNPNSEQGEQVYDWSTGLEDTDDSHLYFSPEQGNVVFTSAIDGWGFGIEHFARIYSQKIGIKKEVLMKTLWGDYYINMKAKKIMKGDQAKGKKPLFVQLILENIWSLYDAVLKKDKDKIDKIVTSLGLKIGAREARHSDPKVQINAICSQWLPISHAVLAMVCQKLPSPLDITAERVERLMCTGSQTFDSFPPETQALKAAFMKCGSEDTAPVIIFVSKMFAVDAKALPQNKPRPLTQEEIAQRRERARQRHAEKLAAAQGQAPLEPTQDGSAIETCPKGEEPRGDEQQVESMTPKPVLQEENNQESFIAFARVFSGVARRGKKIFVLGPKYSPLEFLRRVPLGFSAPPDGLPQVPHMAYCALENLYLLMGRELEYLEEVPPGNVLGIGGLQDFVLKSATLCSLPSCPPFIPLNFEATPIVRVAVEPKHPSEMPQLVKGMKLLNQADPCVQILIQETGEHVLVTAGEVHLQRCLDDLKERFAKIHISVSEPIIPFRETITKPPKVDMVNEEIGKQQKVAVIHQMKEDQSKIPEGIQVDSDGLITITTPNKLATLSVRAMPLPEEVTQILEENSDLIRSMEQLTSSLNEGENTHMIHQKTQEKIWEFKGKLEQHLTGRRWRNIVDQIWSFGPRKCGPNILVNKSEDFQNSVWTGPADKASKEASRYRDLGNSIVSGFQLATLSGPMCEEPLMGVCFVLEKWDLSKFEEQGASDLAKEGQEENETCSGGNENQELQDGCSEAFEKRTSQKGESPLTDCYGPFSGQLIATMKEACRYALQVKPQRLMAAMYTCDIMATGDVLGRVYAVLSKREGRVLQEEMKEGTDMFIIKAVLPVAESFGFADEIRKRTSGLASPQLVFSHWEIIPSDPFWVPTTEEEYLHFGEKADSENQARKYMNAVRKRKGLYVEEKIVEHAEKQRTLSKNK
# UniProt O75822: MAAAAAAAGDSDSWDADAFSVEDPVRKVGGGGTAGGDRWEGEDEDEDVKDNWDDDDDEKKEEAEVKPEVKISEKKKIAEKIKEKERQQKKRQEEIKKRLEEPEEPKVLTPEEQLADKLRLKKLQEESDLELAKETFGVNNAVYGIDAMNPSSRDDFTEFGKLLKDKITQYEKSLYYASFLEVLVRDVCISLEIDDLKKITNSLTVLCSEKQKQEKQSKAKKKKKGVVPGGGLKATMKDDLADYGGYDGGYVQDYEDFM
# UniProt P60981: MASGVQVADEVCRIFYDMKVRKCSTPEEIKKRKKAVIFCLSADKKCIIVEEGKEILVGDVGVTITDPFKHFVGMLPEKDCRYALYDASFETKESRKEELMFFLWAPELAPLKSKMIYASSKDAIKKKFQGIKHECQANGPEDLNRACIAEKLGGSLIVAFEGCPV
# UniProt Q8WTR2: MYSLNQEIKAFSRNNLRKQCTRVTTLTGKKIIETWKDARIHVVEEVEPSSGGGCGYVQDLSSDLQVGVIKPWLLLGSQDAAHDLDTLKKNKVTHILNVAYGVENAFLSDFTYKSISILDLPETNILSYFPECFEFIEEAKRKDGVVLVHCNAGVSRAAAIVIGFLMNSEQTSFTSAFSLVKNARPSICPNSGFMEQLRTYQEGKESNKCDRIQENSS
# UniProt Q13541: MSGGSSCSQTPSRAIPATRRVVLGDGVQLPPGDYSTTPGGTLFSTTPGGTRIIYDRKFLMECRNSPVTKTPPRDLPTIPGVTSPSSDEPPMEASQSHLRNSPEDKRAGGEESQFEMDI
# UniProt O60841: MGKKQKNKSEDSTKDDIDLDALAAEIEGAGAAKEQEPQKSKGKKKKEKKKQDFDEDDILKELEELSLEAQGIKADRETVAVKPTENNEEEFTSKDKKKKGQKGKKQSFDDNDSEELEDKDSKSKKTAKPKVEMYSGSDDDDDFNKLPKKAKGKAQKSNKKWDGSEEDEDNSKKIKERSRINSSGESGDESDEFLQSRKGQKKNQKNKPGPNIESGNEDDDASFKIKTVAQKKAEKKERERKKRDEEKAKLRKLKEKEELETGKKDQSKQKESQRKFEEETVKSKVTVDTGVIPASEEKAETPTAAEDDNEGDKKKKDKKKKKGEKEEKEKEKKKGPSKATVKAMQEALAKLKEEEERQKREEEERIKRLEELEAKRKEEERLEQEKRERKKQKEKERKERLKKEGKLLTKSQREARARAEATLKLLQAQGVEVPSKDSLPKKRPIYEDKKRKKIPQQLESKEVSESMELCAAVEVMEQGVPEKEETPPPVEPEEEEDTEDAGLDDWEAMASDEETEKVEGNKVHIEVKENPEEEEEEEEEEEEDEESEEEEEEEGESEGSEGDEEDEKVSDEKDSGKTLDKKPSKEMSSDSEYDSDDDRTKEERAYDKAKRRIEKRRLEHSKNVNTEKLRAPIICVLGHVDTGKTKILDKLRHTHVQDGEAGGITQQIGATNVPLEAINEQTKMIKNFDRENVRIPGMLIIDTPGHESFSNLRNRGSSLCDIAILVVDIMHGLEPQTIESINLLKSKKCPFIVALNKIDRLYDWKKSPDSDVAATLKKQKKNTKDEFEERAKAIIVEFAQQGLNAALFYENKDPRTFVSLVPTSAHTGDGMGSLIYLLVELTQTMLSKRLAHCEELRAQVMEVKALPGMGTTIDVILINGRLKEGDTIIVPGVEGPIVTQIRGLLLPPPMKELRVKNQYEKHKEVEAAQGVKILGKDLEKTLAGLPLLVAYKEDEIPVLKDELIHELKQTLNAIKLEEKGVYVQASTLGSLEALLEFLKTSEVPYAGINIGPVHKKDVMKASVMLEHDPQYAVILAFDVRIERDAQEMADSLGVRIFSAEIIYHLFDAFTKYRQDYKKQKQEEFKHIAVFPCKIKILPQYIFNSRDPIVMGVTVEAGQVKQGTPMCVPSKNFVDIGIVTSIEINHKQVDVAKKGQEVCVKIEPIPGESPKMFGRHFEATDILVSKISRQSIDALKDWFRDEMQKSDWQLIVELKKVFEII
# This is one part of the list. The data scatter; read single values as rough.
# Legend:
# [1] = compound: ClCC(=O)N[C@@H]1CCCc2ccccc12; test: log2 mean competition ratio of IA-DTB cysteine labelling (DMSO/compound) (log2 ratio); higher = stronger cysteine engagement by compound; conditions: treatment time: 4 h, cell line lysate: HEK293T
# Protocol: (§1)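 IA-DTB competitive cysteine chemoproteomics in HEK293T RIPA lysate. Lysates were treated with compound 29 or 30 at 50 or 200 µM for 4 h, then IA-DTB (500 µM, 1 h), trypsin-digested, NeutrAvidin-enriched and analysed by diaPASEF. Competition ratio = intensity DMSO / intensity compound (n=4 treated, n=64 DMSO); binding: mean log2 CR ≥ 1 and p ≤ 0.05 plus QC filters. Target is the cysteine site.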
# [2] = compound: ClCC(=O)N[C@H]1CCCc2ccccc12; test: as above; conditions: treatment time: 4 h, cell line lysate: HEK293T
# Protocol: as §1
Target,log2 mean competition ratio ([1]; 50 µM),log2 mean competition ratio ([1]; 200 µM),log2 mean competition ratio ([2]; 50 µM),log2 mean competition ratio ([2]; 200 µM)
DSC2 C418 (UniProt Q02487),0.0663,-0.436,-0.245,0.202
DTNB C197,-0.218,0.0416,0.0353,0.0405
EIF3C C752 (UniProt Q99613),0.109,-0.149,-0.3,-0.209
EIF3A C160 (UniProt Q14152),0.346,0.121,-0.593,0.0278
EGFL7 C117 (UniProt Q9UHF1),0.0489,0.241,0.137,0.258
DUT C166,-0.00582,-0.128,0.0971,-0.0816
EIF3I C76,-0.174,-0.0157,-0.118,0.0782
EEF2KMT C189 (UniProt Q96G04),0.503,-0.174,0.547,0.407
EDRF1 C882 (UniProt Q3B7T1),-0.103,0.33,0.219,0.215
DUS2 C475 (UniProt Q9NX74),-0.0461,0.136,-0.146,0.166
EFL1 C38 (UniProt Q7Z2Z2),-0.105,-0.0129,-0.125,-0.143
EIF3J C207 (UniProt O75822),-0.0258,-0.194,-0.488,-0.155
DSTN C163 (UniProt P60981),0.152,0.415,0.334,0.305
DSC3 C471,-0.265,0.26,-0.151,-0.104
DSC2 C797 (UniProt Q02487),-0.0081,0.219,-0.345,0.418
DUSP19 C150 (UniProt Q8WTR2),-0.14,-0.133,0.0764,-0.262
DST C3225 (UniProt Q03001),-0.0388,-0.0996,-0.283,-0.0411
EIF4EBP1 C7 (UniProt Q13541),-0.019,0.0536,0.218,0.275
DSTN C39 (UniProt P60981),0.272,0.0594,0.25,-0.123
DZIP3 C328 (UniProt Q86Y13),0.0129,-0.0246,-0.658,-0.154
EIF5B C853 (UniProt O60841),-0.128,-0.153,-0.0942,-0.193
EBF3 C264,-0.222,0.459,-0.3,0.262
EEF2 C290 (UniProt P13639),0.497,-0.205,0.0866,-0.14
DTX3L C175 (UniProt Q8TDB6),-0.0622,0.253,-0.219,0.153

# Seven entries from above, tab-delimited:
Target	log2 mean competition ratio ([1]; 50 µM)	log2 mean competition ratio ([1]; 200 µM)	log2 mean competition ratio ([2]; 50 µM)	log2 mean competition ratio ([2]; 200 µM)
DUT C166	-0.00582	-0.128	0.0971	-0.0816
EIF3I C76	-0.174	-0.0157	-0.118	0.0782
EEF2KMT C189 (UniProt Q96G04)	0.503	-0.174	0.547	0.407
EDRF1 C882 (UniProt Q3B7T1)	-0.103	0.33	0.219	0.215
DUS2 C475 (UniProt Q9NX74)	-0.0461	0.136	-0.146	0.166
EFL1 C38 (UniProt Q7Z2Z2)	-0.105	-0.0129	-0.125	-0.143
EIF3J C207 (UniProt O75822)	-0.0258	-0.194	-0.488	-0.155
